Results from patent US20250179196A1.
Results are given in words; binding and its absence hold for the method and conditions named. Some entries that bind do so weakly or less than the wild type.

By UniProt entry, the sequences of proteins in these tests, tags left out. Residues count along the entry.
UniProt Q5VWK5, residues 24-629: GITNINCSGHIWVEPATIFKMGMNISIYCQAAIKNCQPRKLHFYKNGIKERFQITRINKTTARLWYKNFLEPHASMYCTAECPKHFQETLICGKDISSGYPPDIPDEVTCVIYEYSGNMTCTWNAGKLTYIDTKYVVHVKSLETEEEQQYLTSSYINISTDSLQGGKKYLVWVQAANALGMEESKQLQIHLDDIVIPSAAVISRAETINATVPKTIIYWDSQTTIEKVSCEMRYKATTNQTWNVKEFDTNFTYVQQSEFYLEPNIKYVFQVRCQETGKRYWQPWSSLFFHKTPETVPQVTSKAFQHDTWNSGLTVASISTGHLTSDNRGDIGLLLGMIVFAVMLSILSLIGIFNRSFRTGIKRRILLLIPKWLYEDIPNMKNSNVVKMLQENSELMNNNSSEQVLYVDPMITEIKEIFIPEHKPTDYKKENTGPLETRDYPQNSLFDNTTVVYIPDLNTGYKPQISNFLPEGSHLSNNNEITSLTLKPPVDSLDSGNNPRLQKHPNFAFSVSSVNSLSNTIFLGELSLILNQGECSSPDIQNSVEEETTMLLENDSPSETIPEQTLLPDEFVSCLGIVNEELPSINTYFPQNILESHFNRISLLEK

Target: human IL-23R on the cell surface (human) (UniProt Q5VWK5)
Assay: flow cytometry, HEK-IL-23R cells

B1: I23RB81 (antibody, mouse IgG2a, kappa, V domains shown)
VH: DVQLQESGPGLVAPSQSLSITCTVSGFSLTSYAINWVRQPPGKGLEWLGVIWTGGGTNYNSALKSRLSISKDNSKSQLFLKMNSLQTDDTARYYCARNRDYSNYRWYFDVWGAGTSVTVSS
VL: DIVMTQSHKFMSTSVGDRVSIICKASQDVSTAVAWYQQKPGQSPKLLIYSASYRYTGVPDRFTGSGSGTDFTFTISSVQAEDLAVYYCQQHYSTPLTFGAGTRLEIKR
B1 was tested, and the binding was “binds”.
